# According to the supplement of paper PMC8728848:
# This is one part of the list.
# Tests used:
# Assay in all cases: glycan array binding signal (z-score within array); higher = stronger binding
# Settings in all cases: glycan notation: IUPAC condensed, linker removed
# [1] = target: Fuc(a1-2)Gal
# Method in brief: (§1)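 The Consortium for Functional Glycomics database supplied 3228 glycan arrays, of which those lacking an available protein sequence were dropped. The binding signal, a within-array Z-score, was averaged across arrays of the same protein sequence and across linkers. Negative scores can be read as non-binding.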
# [2] = target: Fuc(a1-2)Gal(b1-3)GalNAc
# Method in brief: as §1
# [3] = target: Fuc(a1-2)Gal(b1-3)GalNAc(a1-3)[Fuc(a1-2)]Gal(b1-4)Glc
# Method in brief: as §1
# [4] = target: Fuc(a1-2)Gal(b1-3)GalNAc(a1-3)[Fuc(a1-2)]Gal(b1-4)GlcNAc
# Method in brief: as §1
# [5] = target: Fuc(a1-2)Gal(b1-3)GalNAc(b1-3)Gal
# Method in brief: as §1
# [6] = target: Fuc(a1-2)Gal(b1-3)GalNAc(b1-3)Gal(a1-4)Gal(b1-4)Glc
# Method in brief: as §1
# [7] = target: Fuc(a1-2)Gal(b1-3)GalNAc(b1-4)[Neu5Ac(a2-3)]Gal(b1-4)Glc
# Method in brief: as §1
# [8] = target: Fuc(a1-2)Gal(b1-3)GlcNAc
# Method in brief: as §1
# [9] = target: Fuc(a1-2)Gal(b1-3)GlcNAc(b1-2)Man(a1-3)[Fuc(a1-2)Gal(b1-3)GlcNAc(b1-2)Man(a1-6)]Man(b1-4)GlcNAc(b1-4)GlcNAc
# Method in brief: as §1
# [10] = target: Fuc(a1-2)Gal(b1-3)GlcNAc(b1-2)Man(a1-3)[Fuc(a1-2)Gal(b1-3)GlcNAc(b1-2)Man(a1-6)]Man(b1-4)GlcNAc(b1-4)[Fuc(a1-6)]GlcNAc
# Method in brief: as §1
# [11] = target: Fuc(a1-2)Gal(b1-3)GlcNAc(b1-3)Gal(b1-4)Glc
# Method in brief: as §1
# [12] = target: Fuc(a1-2)Gal(b1-3)GlcNAc(b1-3)GalNAc
# Method in brief: as §1
# [13] = target: Fuc(a1-2)Gal(b1-3)GlcNAc(b1-3)[Fuc(a1-2)Gal(b1-3)GlcNAc(b1-6)]GalNAc
# Method in brief: as §1
# [14] = target: Fuc(a1-2)Gal(b1-3)GlcNAc(b1-3)[Gal(b1-4)GlcNAc(b1-6)]Gal(b1-4)Glc
# Method in brief: as §1
# [15] = target: Fuc(a1-2)Gal(b1-3)GlcNAc(b1-3)[Neu5Ac(a2-6)Gal(b1-4)GlcNAc(b1-6)]Gal(b1-4)Glc
# Method in brief: as §1
# [16] = target: Fuc(a1-2)Gal(b1-3)GlcNAc6S
# Method in brief: as §1
# [17] = target: Fuc(a1-2)Gal(b1-3)[Fuc(a1-4)]GlcNAc
# Method in brief: as §1
# [18] = target: Fuc(a1-2)Gal(b1-3)[Fuc(a1-4)]GlcNAc(b1-2)Man(a1-3)[Fuc(a1-2)Gal(b1-3)[Fuc(a1-4)]GlcNAc(b1-2)Man(a1-3)]Man(b1-4)GlcNAc(b1-4)GlcNAc
# Method in brief: as §1
# [19] = target: Fuc(a1-2)Gal(b1-3)[Fuc(a1-4)]GlcNAc(b1-2)Man(a1-3)[Fuc(a1-2)Gal(b1-3)[Fuc(a1-4)]GlcNAc(b1-2)Man(a1-6)]Man(b1-4)GlcNAc(b1-4)[Fuc(a1-6)]GlcNAc(b1-4)[Fuc(a1-6)]GlcNAc
# Method in brief: as §1
# [20] = target: Fuc(a1-2)Gal(b1-3)[Fuc(a1-4)]GlcNAc(b1-3)[Fuc(a1-3)[Gal(b1-4)]GlcNAc(b1-6)]Gal(b1-4)Glc
# Method in brief: as §1
# [21] = target: Fuc(a1-2)Gal(b1-3)[Fuc(a1-4)]GlcNAc(b1-3)[Gal(b1-4)GlcNAc(b1-6)]Gal(b1-4)Glc
# Method in brief: as §1
# [22] = target: Fuc(a1-2)Gal(b1-4)Glc
# Method in brief: as §1
# [23] = target: Fuc(a1-2)Gal(b1-4)Glc6S
# Method in brief: as §1
# [24] = target: Fuc(a1-2)Gal(b1-4)GlcNAc
# Method in brief: as §1
# [25] = target: Fuc(a1-2)Gal(b1-4)GlcNAc(b1-2)Man
# Method in brief: as §1
# [26] = target: Fuc(a1-2)Gal(b1-4)GlcNAc(b1-2)Man(a1-3)[Fuc(a1-2)Gal(b1-4)GlcNAc(b1-2)Man(a1-6)]Man(b1-4)GlcNAc(b1-4)GlcNAc
# Method in brief: as §1
# [27] = target: Fuc(a1-2)Gal(b1-4)GlcNAc(b1-2)Man(a1-3)[Fuc(a1-2)Gal(b1-4)GlcNAc(b1-2)Man(a1-6)]Man(b1-4)GlcNAc(b1-4)[Fuc(a1-6)]GlcNAc
# Method in brief: as §1
# [28] = target: Fuc(a1-2)Gal(b1-4)GlcNAc(b1-2)[Fuc(a1-2)Gal(b1-4)GlcNAc(b1-4)]Man(a1-3)[Fuc(a1-2)Gal(b1-4)GlcNAc(b1-2)Man(a1-6)]Man(b1-4)GlcNAc(b1-4)GlcNAc
# Method in brief: as §1
# [29] = target: Fuc(a1-2)Gal(b1-4)GlcNAc(b1-3)Gal(b1-4)GlcNAc
# Method in brief: as §1
# [30] = target: Fuc(a1-2)Gal(b1-4)GlcNAc(b1-3)Gal(b1-4)GlcNAc(b1-2)Man(a1-3)[Fuc(a1-2)Gal(b1-4)GlcNAc(b1-3)Gal(b1-4)GlcNAc(b1-2)Man(a1-6)]Man(b1-4)GlcNAc(b1-4)GlcNAc
# Method in brief: as §1
# [31] = target: Fuc(a1-2)Gal(b1-4)GlcNAc(b1-3)Gal(b1-4)GlcNAc(b1-3)Gal(b1-4)GlcNAc
# Method in brief: as §1
# [32] = target: Fuc(a1-2)Gal(b1-4)GlcNAc(b1-3)GalNAc
# Method in brief: as §1
# [33] = target: Fuc(a1-2)Gal(b1-4)GlcNAc(b1-3)[Fuc(a1-2)Gal(b1-4)GlcNAc(b1-6)]GalNAc
# Method in brief: as §1
# [34] = target: Fuc(a1-2)Gal(b1-4)GlcNAc(b1-3)[Fuc(a1-3)[Gal(b1-4)]GlcNAc(b1-6)]Gal(b1-4)Glc
# Method in brief: as §1
# [35] = target: Fuc(a1-2)Gal(b1-4)GlcNAc(b1-6)GalNAc
# Method in brief: as §1
# [36] = target: Fuc(a1-2)Gal(b1-4)GlcNAc6S
# Method in brief: as §1
# [37] = target: Fuc(a1-2)Gal(b1-4)[Fuc(a1-3)]GlcNAc
# Method in brief: as §1
# [38] = target: Fuc(a1-2)Gal(b1-4)[Fuc(a1-3)]GlcNAc(b1-2)Man(a1-3)[Fuc(a1-2)Gal(b1-4)[Fuc(a1-3)]GlcNAc(b1-2)Man(a1-6)]Man(b1-4)GlcNAc(b1-4)[Fuc(a1-6)]GlcNAc
# Method in brief: as §1
# [39] = target: Fuc(a1-2)Gal(b1-4)[Fuc(a1-3)]GlcNAc(b1-2)[Fuc(a1-2)Gal(b1-4)[Fuc(a1-3)]GlcNAc(b1-4)]Man(a1-3)[Fuc(a1-2)Gal(b1-4)[Fuc(a1-3)]GlcNAc(b1-2)Man(a1-6)]Man(b1-4)GlcNAc(b1-4)GlcNAc
# Method in brief: as §1
# [40] = target: Fuc(a1-2)Gal(b1-4)[Fuc(a1-3)]GlcNAc(b1-3)Gal(b1-4)[Fuc(a1-3)]GlcNAc
# Method in brief: as §1
# [41] = target: Fuc(a1-2)Gal(b1-4)[Fuc(a1-3)]GlcNAc(b1-3)Gal(b1-4)[Fuc(a1-3)]GlcNAc(b1-3)Gal(b1-4)[Fuc(a1-3)]GlcNAc
# Method in brief: as §1
# [42] = target: Fuc(a1-2)Gal(b1-4)[Fuc(a1-3)]GlcNAc(b1-3)GalNAc
# Method in brief: as §1
# [43] = target: Fuc(a1-2)Gal(b1-4)[Fuc(a1-3)]GlcNAc(b1-3)[Neu5Ac(a2-6)Gal(b1-4)GlcNAc(b1-6)]Gal(b1-4)Glc
# Method in brief: as §1
# [44] = target: Fuc(a1-2)Gal3S(b1-4)GlcNAc
# Method in brief: as §1
# [45] = target: Fuc(a1-2)Gal6S(b1-3)GlcNAc
# Method in brief: as §1
binder,measurement,setting,value
Aap arpt (Staphylococcus epidermidis) (protein) NNEAPQMSSTLQAEEGSNAEAPQSEPTKAEEGGNAEAAQSEPTKAEEGGNAEAPQSEPTKAEEGGNAEAAQSEPTKTEEGSNVKAAQSEPTKAEEGSNAEAPQSEPTKTEEGSNAKAAQSEPTKAEEGGNAEAAQSEPTKTEEGSNAEAPQSEPTKAEEGGYAEAPQSEPTKTEEGGNAEAPNVPTIKA,glycan array binding signal (z-score),[1],-0.31
same,glycan array binding signal (z-score),[2],-0.765
same,glycan array binding signal (z-score),[3],-0.816
same,glycan array binding signal (z-score),[4],-0.313
same,glycan array binding signal (z-score),[5],-2.19
same,glycan array binding signal (z-score),[6],-2.29
same,glycan array binding signal (z-score),[7],-0.337
same,glycan array binding signal (z-score),[8],-1.01
same,glycan array binding signal (z-score),[9],1.6
same,glycan array binding signal (z-score),[10],-0.878
same,glycan array binding signal (z-score),[11],0.811
same,glycan array binding signal (z-score),[12],0.152
same,glycan array binding signal (z-score),[13],0.246
same,glycan array binding signal (z-score),[14],0.495
same,glycan array binding signal (z-score),[15],-1.65
same,glycan array binding signal (z-score),[16],-0.83
same,glycan array binding signal (z-score),[17],0.57
same,glycan array binding signal (z-score),[18],-0.438
same,glycan array binding signal (z-score),[19],1.28
same,glycan array binding signal (z-score),[20],0.019
same,glycan array binding signal (z-score),[21],1.14
same,glycan array binding signal (z-score),[22],-0.254
same,glycan array binding signal (z-score),[23],-1.03
same,glycan array binding signal (z-score),[24],0.299
same,glycan array binding signal (z-score),[25],-0.069
same,glycan array binding signal (z-score),[26],1.23
same,glycan array binding signal (z-score),[27],-0.547
same,glycan array binding signal (z-score),[28],0.036
same,glycan array binding signal (z-score),[29],-0.424
same,glycan array binding signal (z-score),[30],-1.3
same,glycan array binding signal (z-score),[31],0.9
same,glycan array binding signal (z-score),[32],-0.839
same,glycan array binding signal (z-score),[33],-1.34
same,glycan array binding signal (z-score),[34],-0.859
same,glycan array binding signal (z-score),[35],2.11
same,glycan array binding signal (z-score),[36],0.068
same,glycan array binding signal (z-score),[37],0.135
same,glycan array binding signal (z-score),[38],-0.48
same,glycan array binding signal (z-score),[39],1.73
same,glycan array binding signal (z-score),[40],0.131
same,glycan array binding signal (z-score),[41],0.053
same,glycan array binding signal (z-score),[42],-0.483
same,glycan array binding signal (z-score),[43],-0.793
same,glycan array binding signal (z-score),[44],0.184
same,glycan array binding signal (z-score),[45],-1.52

# 2 entries picked at random from the list so far, as already listed:
binder,measurement,setting,value
Aap arpt (Staphylococcus epidermidis) (protein) NNEAPQMSSTLQAEEGSNAEAPQSEPTKAEEGGNAEAAQSEPTKAEEGGNAEAPQSEPTKAEEGGNAEAAQSEPTKTEEGSNVKAAQSEPTKAEEGSNAEAPQSEPTKTEEGSNAKAAQSEPTKAEEGGNAEAAQSEPTKTEEGSNAEAPQSEPTKAEEGGYAEAPQSEPTKTEEGGNAEAPNVPTIKA,glycan array binding signal (z-score),[17],0.57
same,glycan array binding signal (z-score),[40],0.131
